Data published in the supplement of paper PMC12595434, “Development of retinoid nuclear receptor pathway antagonists through targeting aldehyde dehydrogenase 1A3” (iScience, 2025).
This is one part of the list. The data scatter; read single values as rough.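 Tm was set to 64 °C where no melting was found, and many curves are irregular.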

Chains of the proteins cited; added tags and fusions are not shown. Lines headed by an entry give the natural chain unless they say otherwise; changes in a name come on top.
UniProt O14593: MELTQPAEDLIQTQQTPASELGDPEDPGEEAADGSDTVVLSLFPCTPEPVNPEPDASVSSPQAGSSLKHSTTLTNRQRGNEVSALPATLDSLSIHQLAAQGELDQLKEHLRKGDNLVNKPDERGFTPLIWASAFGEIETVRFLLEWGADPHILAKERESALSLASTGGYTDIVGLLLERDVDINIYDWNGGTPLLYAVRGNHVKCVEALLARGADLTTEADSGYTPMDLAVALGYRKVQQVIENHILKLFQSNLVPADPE
UniProt O00499: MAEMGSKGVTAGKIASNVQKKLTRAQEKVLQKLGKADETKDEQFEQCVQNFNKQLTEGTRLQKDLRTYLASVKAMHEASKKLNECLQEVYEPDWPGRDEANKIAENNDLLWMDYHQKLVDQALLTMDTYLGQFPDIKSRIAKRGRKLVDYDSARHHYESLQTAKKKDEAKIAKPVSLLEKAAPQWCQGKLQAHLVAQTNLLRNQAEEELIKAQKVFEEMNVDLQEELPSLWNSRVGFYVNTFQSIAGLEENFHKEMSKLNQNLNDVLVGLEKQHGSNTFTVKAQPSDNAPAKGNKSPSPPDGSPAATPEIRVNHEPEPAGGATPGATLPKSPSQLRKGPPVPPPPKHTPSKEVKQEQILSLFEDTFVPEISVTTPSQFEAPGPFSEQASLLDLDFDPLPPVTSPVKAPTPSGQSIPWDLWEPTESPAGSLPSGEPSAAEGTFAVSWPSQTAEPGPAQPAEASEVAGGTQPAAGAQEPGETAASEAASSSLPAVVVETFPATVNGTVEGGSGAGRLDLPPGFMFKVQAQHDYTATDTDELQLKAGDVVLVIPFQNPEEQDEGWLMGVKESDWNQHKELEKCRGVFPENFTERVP
UniProt O14802: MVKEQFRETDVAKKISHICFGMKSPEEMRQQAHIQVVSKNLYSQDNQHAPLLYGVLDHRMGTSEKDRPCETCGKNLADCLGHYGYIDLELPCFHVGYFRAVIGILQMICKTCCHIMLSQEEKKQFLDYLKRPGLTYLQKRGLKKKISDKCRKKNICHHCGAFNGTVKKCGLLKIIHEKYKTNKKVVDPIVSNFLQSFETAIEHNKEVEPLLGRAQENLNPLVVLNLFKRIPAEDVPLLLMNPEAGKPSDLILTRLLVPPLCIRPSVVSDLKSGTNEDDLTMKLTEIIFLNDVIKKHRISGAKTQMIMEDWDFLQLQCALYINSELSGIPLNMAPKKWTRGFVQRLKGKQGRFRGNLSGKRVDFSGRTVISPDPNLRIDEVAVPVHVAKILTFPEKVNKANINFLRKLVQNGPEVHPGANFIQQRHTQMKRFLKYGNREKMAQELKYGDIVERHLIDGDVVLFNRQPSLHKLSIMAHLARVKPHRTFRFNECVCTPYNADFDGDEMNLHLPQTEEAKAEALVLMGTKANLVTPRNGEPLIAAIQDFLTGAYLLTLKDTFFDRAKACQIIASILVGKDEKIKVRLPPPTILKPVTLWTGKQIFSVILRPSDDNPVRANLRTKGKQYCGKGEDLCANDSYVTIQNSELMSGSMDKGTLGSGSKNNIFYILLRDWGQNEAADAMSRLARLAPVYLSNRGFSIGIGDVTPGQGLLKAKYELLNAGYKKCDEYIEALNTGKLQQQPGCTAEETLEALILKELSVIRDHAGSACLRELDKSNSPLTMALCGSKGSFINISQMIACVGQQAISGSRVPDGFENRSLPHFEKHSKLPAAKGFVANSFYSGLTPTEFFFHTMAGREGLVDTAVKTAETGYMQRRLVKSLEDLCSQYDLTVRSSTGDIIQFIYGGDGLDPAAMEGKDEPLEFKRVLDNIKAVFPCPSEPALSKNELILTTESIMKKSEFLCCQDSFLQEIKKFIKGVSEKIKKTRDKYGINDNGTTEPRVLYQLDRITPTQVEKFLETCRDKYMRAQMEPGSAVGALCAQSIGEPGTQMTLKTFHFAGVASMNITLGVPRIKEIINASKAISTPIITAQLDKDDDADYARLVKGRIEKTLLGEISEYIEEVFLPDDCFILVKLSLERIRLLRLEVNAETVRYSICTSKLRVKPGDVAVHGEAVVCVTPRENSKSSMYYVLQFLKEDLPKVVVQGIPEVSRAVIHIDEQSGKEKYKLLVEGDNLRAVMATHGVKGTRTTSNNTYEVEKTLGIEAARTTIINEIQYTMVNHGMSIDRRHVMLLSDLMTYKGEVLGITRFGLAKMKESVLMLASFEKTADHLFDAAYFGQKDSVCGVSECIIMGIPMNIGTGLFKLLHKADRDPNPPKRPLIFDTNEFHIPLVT
UniProt A6NDG6: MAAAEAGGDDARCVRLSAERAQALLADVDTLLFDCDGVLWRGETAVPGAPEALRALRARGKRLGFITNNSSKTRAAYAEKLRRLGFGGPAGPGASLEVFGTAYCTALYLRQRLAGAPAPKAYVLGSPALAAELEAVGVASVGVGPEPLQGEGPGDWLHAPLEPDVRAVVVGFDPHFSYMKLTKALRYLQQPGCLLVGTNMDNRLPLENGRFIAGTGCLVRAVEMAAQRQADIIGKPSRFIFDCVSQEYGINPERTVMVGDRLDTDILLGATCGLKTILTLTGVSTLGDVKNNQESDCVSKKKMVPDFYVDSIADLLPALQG
UniProt O43237, whole entry: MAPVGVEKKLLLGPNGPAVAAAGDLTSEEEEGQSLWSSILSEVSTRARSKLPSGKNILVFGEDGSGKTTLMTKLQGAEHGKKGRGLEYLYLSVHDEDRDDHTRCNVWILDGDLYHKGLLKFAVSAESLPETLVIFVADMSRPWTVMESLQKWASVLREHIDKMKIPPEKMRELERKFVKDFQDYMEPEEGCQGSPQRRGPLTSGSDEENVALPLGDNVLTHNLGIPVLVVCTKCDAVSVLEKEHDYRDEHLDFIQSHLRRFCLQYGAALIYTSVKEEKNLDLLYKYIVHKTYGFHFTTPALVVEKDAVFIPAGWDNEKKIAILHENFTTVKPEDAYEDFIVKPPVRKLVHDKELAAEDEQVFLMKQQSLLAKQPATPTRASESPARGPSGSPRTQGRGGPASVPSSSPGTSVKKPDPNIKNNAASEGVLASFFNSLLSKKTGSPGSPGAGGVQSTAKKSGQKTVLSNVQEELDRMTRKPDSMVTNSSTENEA
UniProt O00308: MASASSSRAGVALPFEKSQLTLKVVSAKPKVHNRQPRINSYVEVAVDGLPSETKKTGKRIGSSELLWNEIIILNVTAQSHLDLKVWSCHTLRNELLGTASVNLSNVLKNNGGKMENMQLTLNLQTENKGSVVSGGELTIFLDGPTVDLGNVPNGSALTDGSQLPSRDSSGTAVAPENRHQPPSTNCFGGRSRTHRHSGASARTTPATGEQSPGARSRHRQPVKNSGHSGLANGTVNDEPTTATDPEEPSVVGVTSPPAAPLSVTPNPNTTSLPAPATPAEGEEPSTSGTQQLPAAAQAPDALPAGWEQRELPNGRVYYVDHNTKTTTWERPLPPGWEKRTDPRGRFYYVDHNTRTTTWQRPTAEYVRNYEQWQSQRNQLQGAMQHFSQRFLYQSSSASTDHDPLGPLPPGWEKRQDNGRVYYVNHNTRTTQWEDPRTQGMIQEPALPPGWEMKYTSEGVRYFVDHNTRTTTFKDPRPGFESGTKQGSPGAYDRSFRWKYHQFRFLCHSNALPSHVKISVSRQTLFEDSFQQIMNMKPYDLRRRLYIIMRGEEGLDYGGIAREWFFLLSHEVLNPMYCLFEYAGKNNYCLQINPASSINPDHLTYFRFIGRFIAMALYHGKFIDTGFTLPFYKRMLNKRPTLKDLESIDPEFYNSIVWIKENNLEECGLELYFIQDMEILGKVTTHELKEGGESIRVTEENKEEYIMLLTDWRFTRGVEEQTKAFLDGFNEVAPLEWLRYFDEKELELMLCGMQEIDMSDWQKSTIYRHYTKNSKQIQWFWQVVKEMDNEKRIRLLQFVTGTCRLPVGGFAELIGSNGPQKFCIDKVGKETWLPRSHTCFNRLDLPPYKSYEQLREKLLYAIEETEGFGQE
UniProt O00762: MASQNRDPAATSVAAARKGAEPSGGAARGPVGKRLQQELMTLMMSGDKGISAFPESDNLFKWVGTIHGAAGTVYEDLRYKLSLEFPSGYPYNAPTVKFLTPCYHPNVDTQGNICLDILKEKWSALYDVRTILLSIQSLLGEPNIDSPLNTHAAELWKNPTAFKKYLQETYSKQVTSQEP
UniProt O15042: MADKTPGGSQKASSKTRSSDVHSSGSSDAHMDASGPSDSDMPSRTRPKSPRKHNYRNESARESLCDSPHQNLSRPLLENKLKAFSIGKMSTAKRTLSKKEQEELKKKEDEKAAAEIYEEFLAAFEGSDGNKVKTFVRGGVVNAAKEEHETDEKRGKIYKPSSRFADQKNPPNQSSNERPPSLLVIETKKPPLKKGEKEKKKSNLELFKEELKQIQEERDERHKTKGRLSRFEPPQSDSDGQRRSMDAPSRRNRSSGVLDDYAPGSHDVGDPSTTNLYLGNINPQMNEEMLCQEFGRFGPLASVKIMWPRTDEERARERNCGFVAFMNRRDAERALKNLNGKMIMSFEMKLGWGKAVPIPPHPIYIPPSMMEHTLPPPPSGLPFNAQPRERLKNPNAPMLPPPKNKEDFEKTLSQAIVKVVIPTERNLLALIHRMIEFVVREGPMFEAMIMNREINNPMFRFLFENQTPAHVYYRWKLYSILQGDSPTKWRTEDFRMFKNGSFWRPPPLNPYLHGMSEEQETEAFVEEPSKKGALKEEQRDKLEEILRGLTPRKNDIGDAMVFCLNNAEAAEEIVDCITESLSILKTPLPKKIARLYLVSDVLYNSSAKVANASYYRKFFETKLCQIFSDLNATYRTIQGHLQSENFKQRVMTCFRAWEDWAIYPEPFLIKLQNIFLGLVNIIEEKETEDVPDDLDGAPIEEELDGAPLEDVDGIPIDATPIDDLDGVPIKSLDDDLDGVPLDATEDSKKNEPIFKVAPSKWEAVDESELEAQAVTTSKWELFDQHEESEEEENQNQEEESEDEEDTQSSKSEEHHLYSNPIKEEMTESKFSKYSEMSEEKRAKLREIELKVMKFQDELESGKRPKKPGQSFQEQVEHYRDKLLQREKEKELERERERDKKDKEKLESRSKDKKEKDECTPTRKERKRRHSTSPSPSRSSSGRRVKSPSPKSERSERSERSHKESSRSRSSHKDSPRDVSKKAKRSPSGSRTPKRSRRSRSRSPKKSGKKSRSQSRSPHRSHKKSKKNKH
UniProt O15182: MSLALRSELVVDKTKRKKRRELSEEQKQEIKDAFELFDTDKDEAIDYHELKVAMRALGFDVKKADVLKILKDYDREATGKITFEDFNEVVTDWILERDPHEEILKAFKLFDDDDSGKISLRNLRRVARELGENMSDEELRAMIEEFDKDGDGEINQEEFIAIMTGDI
UniProt O14776: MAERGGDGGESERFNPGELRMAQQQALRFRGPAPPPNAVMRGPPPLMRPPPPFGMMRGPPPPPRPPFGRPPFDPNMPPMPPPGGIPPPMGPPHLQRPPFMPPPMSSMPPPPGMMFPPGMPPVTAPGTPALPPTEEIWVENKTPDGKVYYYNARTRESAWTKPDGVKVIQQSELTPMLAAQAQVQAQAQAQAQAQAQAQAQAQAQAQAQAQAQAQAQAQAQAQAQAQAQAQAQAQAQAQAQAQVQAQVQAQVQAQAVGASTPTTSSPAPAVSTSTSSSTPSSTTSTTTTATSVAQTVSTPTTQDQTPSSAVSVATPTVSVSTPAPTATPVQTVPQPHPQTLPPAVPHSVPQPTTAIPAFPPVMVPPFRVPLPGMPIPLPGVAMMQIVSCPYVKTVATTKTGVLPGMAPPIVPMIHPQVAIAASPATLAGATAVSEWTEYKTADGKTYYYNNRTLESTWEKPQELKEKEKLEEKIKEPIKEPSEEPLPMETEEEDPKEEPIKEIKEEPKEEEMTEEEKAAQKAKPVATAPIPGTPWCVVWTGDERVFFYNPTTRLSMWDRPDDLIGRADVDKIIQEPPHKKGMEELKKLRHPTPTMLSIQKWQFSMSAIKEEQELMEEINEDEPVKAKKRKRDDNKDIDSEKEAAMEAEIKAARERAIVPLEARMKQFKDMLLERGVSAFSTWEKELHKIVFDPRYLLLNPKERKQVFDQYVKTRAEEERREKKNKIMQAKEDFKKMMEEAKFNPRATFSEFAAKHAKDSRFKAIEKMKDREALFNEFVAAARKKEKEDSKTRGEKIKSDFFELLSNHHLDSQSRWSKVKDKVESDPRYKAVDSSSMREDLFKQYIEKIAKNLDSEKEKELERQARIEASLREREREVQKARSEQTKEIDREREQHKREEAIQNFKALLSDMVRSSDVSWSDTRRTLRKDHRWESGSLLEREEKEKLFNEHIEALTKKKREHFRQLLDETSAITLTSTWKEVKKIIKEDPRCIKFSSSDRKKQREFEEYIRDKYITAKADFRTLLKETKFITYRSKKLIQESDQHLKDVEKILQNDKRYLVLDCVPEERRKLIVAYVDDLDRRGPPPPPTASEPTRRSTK
UniProt O14880: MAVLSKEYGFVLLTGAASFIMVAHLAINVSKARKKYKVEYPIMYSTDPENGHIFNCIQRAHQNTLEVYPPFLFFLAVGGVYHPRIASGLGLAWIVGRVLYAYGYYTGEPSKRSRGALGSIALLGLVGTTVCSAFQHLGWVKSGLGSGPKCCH

compound: CCc1cnccc1C(=O)Nc1cc2c(cc1F)NC(=O)CC2; test: melting temperature shift (DMSO Tm minus MBE1-treated Tm) in cellular thermal proteome profiling; higher = less thermal stabilization by MBE1 (negative = stabilized by MBE1); details: A375; MBE1 concentration: 100 nM

First: UniProt O14593
Second: ADAM10 (UniProt O14672)
The melting temperature shift of the first is higher: -0.0518 °C for the first, -1.35 °C for the second.

Going from BIN1 (UniProt O00499) to AP3B1 (UniProt O00203), the melting temperature shift falls from 0.696 °C to 0.122 °C.

Going from EIF3F (UniProt O00303) to RBFOX2 (UniProt O43251), the melting temperature shift falls from -0.174 °C to -0.55 °C.

same assay, conditions: A375; MBE1 concentration: 1 uM

Going from DVL2 (UniProt O14641) to HNRNPDL (UniProt O14979), the melting temperature shift rises from 0.165 °C to 0.482 °C.

Compared with MPHOSPH10 (UniProt O00566), POLR3A (UniProt O14802) is lower in melting temperature shift: 0.721 °C for the first, -0.461 °C for the second.

First: UniProt A8K0Z3
Second: PGP (UniProt A6NDG6)
The melting temperature shift of the first is higher: -0.677 °C for the first, -1.6 °C for the second.

Compared with AGPAT2 (UniProt O15120), DYNC1LI2 (UniProt O43237) is higher in melting temperature shift: -0.202 °C for the first, 1.22 °C for the second.

Going from SETD1A (UniProt O15047) to OPLAH (UniProt O14841), the melting temperature shift rises from -0.109 °C to 0.0977 °C.

Going from CLIC1 (UniProt O00299) to SURF4 (UniProt O15260), the melting temperature shift rises from -0.288 °C to 1.76 °C.

Compared with STX16 (UniProt O14662), BCKDK (UniProt O14874) is lower in melting temperature shift: 0.611 °C for the first, -0.397 °C for the second.

Going from UniProt O15504 to UniProt O15020, the melting temperature shift falls from 0.519 °C to 0.055 °C.

First: MYO1C (UniProt O00159)
Second: P4HA2 (UniProt O15460)
The melting temperature shift of the first is lower: -0.571 °C for the first, -0.51 °C for the second.

Going from WWP2 (UniProt O00308) to UBE2C (UniProt O00762), the melting temperature shift falls from 0.282 °C to -0.349 °C.

Going from U2SURP (UniProt O15042) to SPTLC2 (UniProt O15270), the melting temperature shift rises from -0.34 °C to 0.255 °C.

Going from PSMD14 (UniProt O00487) to CETN3 (UniProt O15182), the melting temperature shift falls from -0.263 °C to -4.24 °C.

Going from UniProt A6NFE2 to GAK (UniProt O14976), the melting temperature shift falls from 0.745 °C to -0.73 °C.

Compared with TCERG1 (UniProt O14776), UniProt O00221 is higher in melting temperature shift: -0.494 °C for the first, -0.287 °C for the second.

First: MGST3 (UniProt O14880)
Second: ABLIM1 (UniProt O14639)
The melting temperature shift of the first is lower: -2.64 °C for the first, 0.861 °C for the second.

Compared with PIK3C2A (UniProt O00443), UniProt O14593 is lower in melting temperature shift: 0.198 °C for the first, -1.01 °C for the second.

First: ADAM10 (UniProt O14672)
Second: BIN1 (UniProt O00499)
The melting temperature shift of the first is lower: -0.476 °C for the first, 1.1 °C for the second.

First: AP3B1 (UniProt O00203)
Second: EIF3F (UniProt O00303)
The melting temperature shift of the first is higher: -0.0488 °C for the first, -0.0894 °C for the second.

Work on RBFOX2 (UniProt O43251) yielded a melting temperature shift of -0.00611 °C.
